# The list shows a part of the results.
# B1: Ovorubin (Pomacea canaliculata), J7I2T6 (protein)
# chain: MFVATSLLLAIATLVVRASPHNYLIMDIEPPKSVSERDILNLLSPLQVKHSFRVTGSTRLLIVIRLDAQSYEKLDEITVPGKVEVIPAVNMADTMERCGVSWPRVELTDDNVTLFESESTLTDVTKEQLKAMLIGYGEHMSGLLQAHRFEYYQAAGATPHRHFVFVNSVPDEIEVFGREGVDIWGGPGEFVVKPQYVTRI
# Experiments:
# Experiment in all cases: glycan array binding signal (z-score within array); higher = stronger binding
# Conditions in all cases: glycan notation: IUPAC condensed, linker removed
# [1] = molecular target: Gal(a1-3)Gal(b1-4)GlcNAc
# In short: (§1)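 Columns mapping to the same glycan were averaged after glycan names were converted to IUPAC-condensed notation. The data come from 3228 arrays in the Consortium for Functional Glycomics database, limited to those with an available protein sequence. Binding is reported as a within-array Z-score averaged across arrays of one protein sequence and across linkers.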
# [2] = molecular target: Gal(a1-3)Gal(b1-4)GlcNAc(b1-2)Man
# In short: as §1
# [3] = molecular target: Gal(a1-3)Gal(b1-4)GlcNAc(b1-2)Man(a1-3)[Gal(a1-3)Gal(b1-4)GlcNAc(b1-2)Man(a1-6)]Man(b1-4)GlcNAc(b1-4)GlcNAc
# In short: as §1
# [4] = molecular target: Gal(a1-3)Gal(b1-4)GlcNAc(b1-3)GalNAc
# In short: as §1
# [5] = molecular target: Gal(a1-3)Gal(b1-4)GlcNAc(b1-6)GalNAc
# In short: as §1
# [6] = molecular target: Gal(a1-3)Gal(b1-4)[Fuc(a1-3)]GlcNAc
# In short: as §1
# [7] = molecular target: Gal(a1-3)Gal(b1-4)[Fuc(a1-3)]GlcNAc(b1-2)Man(a1-3)[Gal(a1-3)Gal(b1-4)[Fuc(a1-3)]GlcNAc(b1-2)Man(a1-6)]Man(b1-4)GlcNAc(b1-4)GlcNAc
# In short: as §1
# [8] = molecular target: Gal(a1-3)GalNAc
# In short: as §1
# [9] = molecular target: Gal(a1-3)[Gal(a1-4)]Gal(b1-4)GlcNAc
# In short: as §1
# [10] = molecular target: Gal(a1-4)Gal(b1-3)GlcNAc(b1-2)Man(a1-3)[Gal(a1-4)Gal(b1-3)GlcNAc(b1-2)Man(a1-6)]Man(b1-4)GlcNAc(b1-4)GlcNAc
# In short: as §1
# [11] = molecular target: Gal(a1-4)Gal(b1-4)Glc
# In short: as §1
# [12] = molecular target: Gal(a1-4)Gal(b1-4)GlcNAc
# In short: as §1
# [13] = molecular target: Gal(a1-4)Gal(b1-4)GlcNAc(b1-2)Man(a1-3)[Gal(a1-4)Gal(b1-4)GlcNAc(b1-2)Man(a1-6)]Man(b1-4)GlcNAc(b1-4)GlcNAc
# In short: as §1
# [14] = molecular target: Gal(a1-4)Gal(b1-4)GlcNAc(b1-3)Gal(b1-4)Glc
# In short: as §1
# [15] = molecular target: Gal(a1-4)GlcNAc
# In short: as §1
# [16] = molecular target: Gal(a1-6)Glc
# In short: as §1
# [17] = molecular target: Gal(b1-2)Gal
# In short: as §1
# [18] = molecular target: Gal(b1-3)Gal
# In short: as §1
# [19] = molecular target: Gal(b1-3)Gal(b1-4)GlcNAc
# In short: as §1
# [20] = molecular target: Gal(b1-3)GalNAc
# In short: as §1
# [21] = molecular target: Gal(b1-3)GalNAc(a1-3)[Fuc(a1-2)]Gal(b1-4)Glc
# In short: as §1
# [22] = molecular target: Gal(b1-3)GalNAc(a1-3)[Fuc(a1-2)]Gal(b1-4)GlcNAc
# In short: as §1
# [23] = molecular target: Gal(b1-3)GalNAc(b1-3)Gal
# In short: as §1
# [24] = molecular target: Gal(b1-3)GalNAc(b1-3)Gal(a1-4)Gal(b1-4)Glc
# In short: as §1
# [25] = molecular target: Gal(b1-3)GalNAc(b1-4)Gal(b1-4)Glc
# In short: as §1
# [26] = molecular target: Gal(b1-3)GalNAc(b1-4)[Neu5Ac(a2-3)]Gal(b1-4)Glc
# In short: as §1
# [27] = molecular target: Gal(b1-3)GlcNAc
# In short: as §1
# [28] = molecular target: Gal(b1-3)GlcNAc(a1-3)Gal(b1-4)GlcNAc
# In short: as §1
# [29] = molecular target: Gal(b1-3)GlcNAc(a1-6)Gal(b1-4)GlcNAc
# In short: as §1
# [30] = molecular target: Gal(b1-3)GlcNAc(b1-2)Man
# In short: as §1
# [31] = molecular target: Gal(b1-3)GlcNAc(b1-2)Man(a1-3)[Gal(b1-3)GlcNAc(b1-2)Man(a1-6)]Man(b1-4)GlcNAc(b1-4)GlcNAc
# In short: as §1
# [32] = molecular target: Gal(b1-3)GlcNAc(b1-2)Man(a1-3)[Gal(b1-3)GlcNAc(b1-2)Man(a1-6)]Man(b1-4)GlcNAc(b1-4)[Fuc(a1-6)]GlcNAc
# In short: as §1
# [33] = molecular target: Gal(b1-3)GlcNAc(b1-2)Man(a1-3)[GlcNAc(b1-4)][Gal(b1-3)GlcNAc(b1-2)Man(a1-6)]Man(b1-4)GlcNAc(b1-4)GlcNAc
# In short: as §1
# [34] = molecular target: Gal(b1-3)GlcNAc(b1-2)[Gal(b1-3)GlcNAc(b1-6)]Man(a1-6)[Gal(b1-3)GlcNAc(b1-2)Man(a1-3)]Man(b1-4)GlcNAc(b1-4)GlcNAc
# In short: as §1
# [35] = molecular target: Gal(b1-3)GlcNAc(b1-3)Gal(b1-3)GlcNAc
# In short: as §1
# [36] = molecular target: Gal(b1-3)GlcNAc(b1-3)Gal(b1-4)Glc
# In short: as §1
# [37] = molecular target: Gal(b1-3)GlcNAc(b1-3)Gal(b1-4)GlcNAc
# In short: as §1
# [38] = molecular target: Gal(b1-3)GlcNAc(b1-3)Gal(b1-4)GlcNAc(b1-2)Man(a1-3)[Gal(b1-3)GlcNAc(b1-3)Gal(b1-4)GlcNAc(b1-2)Man(a1-6)]Man(b1-4)GlcNAc(b1-4)GlcNAc
# In short: as §1
# [39] = molecular target: Gal(b1-3)GlcNAc(b1-3)Gal(b1-4)GlcNAc(b1-2)[Gal(b1-3)GlcNAc(b1-3)Gal(b1-4)GlcNAc(b1-6)]Man(a1-6)[Gal(b1-3)GlcNAc(b1-3)Gal(b1-4)GlcNAc(b1-2)Man(a1-3)]Man(b1-4)GlcNAc(b1-4)[Fuc(a1-6)]GlcNAc
# In short: as §1
# [40] = molecular target: Gal(b1-3)GlcNAc(b1-3)Gal(b1-4)GlcNAc(b1-3)Gal(b1-4)GlcNAc(b1-2)[Gal(b1-3)GlcNAc(b1-3)Gal(b1-4)GlcNAc(b1-3)Gal(b1-4)GlcNAc(b1-6)]Man(a1-6)[Gal(b1-3)GlcNAc(b1-3)Gal(b1-4)GlcNAc(b1-3)Gal(b1-4)GlcNAc(b1-2)Man(a1-3)]Man(b1-4)GlcNAc(b1-4)[Fuc(a1-6)]GlcNAc
# In short: as §1
# [41] = molecular target: Gal(b1-3)GlcNAc(b1-3)Gal(b1-4)GlcNAc(b1-6)[Gal(b1-3)GlcNAc(b1-3)]Gal(b1-4)Glc
# In short: as §1
# [42] = molecular target: Gal(b1-3)GlcNAc(b1-3)Gal(b1-4)[Fuc(a1-3)]GlcNAc
# In short: as §1
# [43] = molecular target: Gal(b1-3)GlcNAc(b1-3)Gal(b1-4)[Fuc(a1-3)]GlcNAc(b1-6)[Gal(b1-3)GlcNAc(b1-3)]Gal(b1-4)Glc
# In short: as §1
# [44] = molecular target: Gal(b1-3)GlcNAc(b1-3)GalNAc
# In short: as §1
# [45] = molecular target: Gal(b1-3)GlcNAc(b1-6)Gal(b1-4)GlcNAc
# In short: as §1
binder,measurement,setting,value
B1,glycan array binding signal (z-score),[1],-0.277
same,glycan array binding signal (z-score),[2],-0.079
same,glycan array binding signal (z-score),[3],0.572
same,glycan array binding signal (z-score),[4],0.15
same,glycan array binding signal (z-score),[5],-0.032
same,glycan array binding signal (z-score),[6],0.092
same,glycan array binding signal (z-score),[7],2.17
same,glycan array binding signal (z-score),[8],-0.618
same,glycan array binding signal (z-score),[9],7.96
same,glycan array binding signal (z-score),[10],0.824
same,glycan array binding signal (z-score),[11],-0.529
same,glycan array binding signal (z-score),[12],-0.088
same,glycan array binding signal (z-score),[13],0.195
same,glycan array binding signal (z-score),[14],-0.943
same,glycan array binding signal (z-score),[15],-0.604
same,glycan array binding signal (z-score),[16],-1.13
same,glycan array binding signal (z-score),[17],0.362
same,glycan array binding signal (z-score),[18],-0.461
same,glycan array binding signal (z-score),[19],-0.18
same,glycan array binding signal (z-score),[20],-0.338
same,glycan array binding signal (z-score),[21],-0.022
same,glycan array binding signal (z-score),[22],0.084
same,glycan array binding signal (z-score),[23],-0.065
same,glycan array binding signal (z-score),[24],0.16
same,glycan array binding signal (z-score),[25],-0.385
same,glycan array binding signal (z-score),[26],-0.416
same,glycan array binding signal (z-score),[27],-0.445
same,glycan array binding signal (z-score),[28],-0.605
same,glycan array binding signal (z-score),[29],-0.428
same,glycan array binding signal (z-score),[30],-0.988
same,glycan array binding signal (z-score),[31],0.676
same,glycan array binding signal (z-score),[32],-0.835
same,glycan array binding signal (z-score),[33],0.808
same,glycan array binding signal (z-score),[34],4.93
same,glycan array binding signal (z-score),[35],-0.763
same,glycan array binding signal (z-score),[36],-0.857
same,glycan array binding signal (z-score),[37],-0.789
same,glycan array binding signal (z-score),[38],-0.509
same,glycan array binding signal (z-score),[39],-0.022
same,glycan array binding signal (z-score),[40],2.9
same,glycan array binding signal (z-score),[41],-0.801
same,glycan array binding signal (z-score),[42],-0.529
same,glycan array binding signal (z-score),[43],-0.847
same,glycan array binding signal (z-score),[44],-0.817
same,glycan array binding signal (z-score),[45],-0.475

# An excerpt of these results, with tabs:
binder	measurement	setting	value
B1	glycan array binding signal (z-score)	[9]	7.96
same	glycan array binding signal (z-score)	[10]	0.824
